Values quoted from earlier work as cited in US20160030562A1, “METHODS TO ENHANCE CANCER TREATMENT” (INTERNATIONAL BUSINESS MACHINES CORPORATION, priority 2011, published 2016).

Test system: plasma cholesterol
Details: 80 mg daily; cited from earlier work

SMILES: CC(C)c1c(C(=O)Nc2ccccc2)c(-c2ccccc2)c(-c2ccc(F)cc2)n1CC[C@@H](O)C[C@@H](O)CC(=O)O [atorvastatin]
- plasma cholesterol concentrations: significantly lowers
